Chains of the proteins cited; added tags and fusions are not shown. Lines headed by an entry give the natural chain unless they say otherwise; changes in a name come on top.
UniProt P0A6X3: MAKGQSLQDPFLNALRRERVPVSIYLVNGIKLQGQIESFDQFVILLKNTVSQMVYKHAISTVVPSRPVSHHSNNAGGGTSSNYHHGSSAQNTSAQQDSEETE

According to article PMC7987339:

Molecular target: Hfq (Escherichia coli) (UniProt P0A6X3)
Experiment: EMSA
Conditions: 20 nM RNA, Kd determined but value not in the material; 1 mM DTT, 1 mM MgCl2, 20 mM KCl, 10 mM Na phosphate pH 8.0, 12.5 ug/mL yeast tRNA; 15 min at 37 C; native 5% PAGE in 1X TBE at 4 C; recombinant protein; label: 5'-32P (Kd), unlabelled in competition; probe letters rebuilt from the primers and the genome

Row | Sequence | binding result
1 | GGACACCGUCGCUUAAAGUGACGGCAUAAUAAUAAAAAAAUGAAAUUCCUCUUUGACGGGCCAAUAGCGAUAUUGGCCAUUUUUUU [ChiX sRNA] | binds
2 | GGGCGAUCAGGAAGACCCUCGCGGAGAACCUGAAAGCACGACAUUGCUCACAUUGCUUCCAGUAUUACUUAGCCAGCCGGGUGCUGGCUUUUUUUUU [RyhB sRNA] | binds

The exact form of at least one protein or probe is not confirmed. At least one verdict rests on a figure or table, not on a statement of the authors.
